# Measured values from patent US9199946B2, “Pyrimidinone carboxamide inhibitors of endothelial lipase” (BRISTOL-MYERS SQUIBB COMPANY, priority 2012, dated 2015).
# Some of these results come from one statement about several compounds together.
# Molecular target: T1, Endothelial lipase (EL) (Homo sapiens, UniProt Q9Y5X9)
# T1 construct: HT-1080 cells, which were transformed by RAGE technology (Athersys) to overexpress endogenous EL; endogenous in cells; conditioned medium used as the enzyme source
# T1 sequence (Q9Y5X9 21-500): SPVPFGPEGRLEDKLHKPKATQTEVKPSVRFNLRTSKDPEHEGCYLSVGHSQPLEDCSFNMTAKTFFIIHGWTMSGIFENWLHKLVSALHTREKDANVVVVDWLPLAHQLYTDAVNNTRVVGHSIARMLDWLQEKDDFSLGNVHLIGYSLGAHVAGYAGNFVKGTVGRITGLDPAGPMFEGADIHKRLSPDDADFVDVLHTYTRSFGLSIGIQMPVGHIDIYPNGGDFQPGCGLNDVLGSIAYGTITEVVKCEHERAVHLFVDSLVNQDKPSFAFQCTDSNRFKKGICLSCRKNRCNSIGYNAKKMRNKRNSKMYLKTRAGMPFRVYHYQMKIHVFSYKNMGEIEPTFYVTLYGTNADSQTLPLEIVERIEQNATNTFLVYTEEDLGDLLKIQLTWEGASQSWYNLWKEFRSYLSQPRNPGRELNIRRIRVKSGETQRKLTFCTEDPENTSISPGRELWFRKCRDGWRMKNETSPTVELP
# Experiment: Endothelial lipase (EL) enzymatic assay with fluorescent substrate A10070 in DMPG vesicles
# Assay type: biochemical
# Settings: range observed in the EL assay
# Protocol: Endothelial lipase activity was measured using a fluorescent substrate, A10070, (Invitrogen, CA) doped into an artificial vesicle containing DMPG (Avanti Polar Lipids) as the excipient. Vesicles were prepared by combining 285 μL of 1 mM DMPG in a 1:1 mixture of MeOH and CHCl3 with 15 μL of 1 mM A10070 in a 1:1 mixture of MeOH and CHCl3. The mixture was dried under nitrogen and resuspended in 150 μL of 50 mM HEPES pH 8.0 buffer containing 100 mM NaCl and 0.2 mM EDTA. The sample was allowed to sit at rt for 15 min and then was sonicated 3×4 mins on ice with a Branson Sonicator using duty cycle 1. This preparation provides vesicles with a mole fraction of 0.05 for the FRET substrate.
# The enzymatic assay was measured using white, opaque 96-well half area plates. Each well contained 60 μL of assay buffer (50 mM HEPES pH 8.0, 50 mM NaCl and 1 mM CaCl2) and 2 ul of a DMSO solution containing compound of interest. […] The reaction rates were measured on a Gemini plate reader with an excitation wavelength of 488 nm and an emission of 530 nm. Readings were taken every 20 seconds for 10 min with agitation between each reading. The slope of the linear portion of the readout was used to calculate the rate of the reaction.
smiles,measurement,value
"O=C(NC1CCC(c2ccccc2)CC1)c1[nH]c(=O)n(Cc2ccccc2)c(=O)c1O (stereo not shown) [Example 244, 1-benzyl-5-hydroxy-2,6-dioxo-N-(4-phenylcyclohexyl)-1,2,3,6-tetrahydropyrimidine-4-carboxamide]",IC50,≤ 10 µM
